Experimental findings from paper PMC5634478, “Usefulness of kidney slices for functional analysis of apical reabsorptive transporters” (Scientific Reports, 2017) are described below.

The structures appear in SMILES notation.

This data set concerns Sglt1/2. In words: Uptake of [14C]αMG by mice kidney slices. In kind it is in vitro ADME. As to conditions: [14C]αMG 2.5 μM, pH 7.4, 37 °C, 1-20 min. The protocol:
Uptake studies using mouse kidney slices were carried out as described in a previous report after slight modifications. The slices of whole kidneys were prepared with a microslicer (Zero 1; Dosaka EM, Kyoto, Japan), and the renal pelvis portion was removed. Prepared slices (0.3 mm thick) of whole kidneys from male mice were immediately put in ice-cold oxygenated transport buffer (130 mM NaCl, 4.8 mM KCl, 1.2 mM CaCl2, 1.2 mM MgSO4, 1.2 mM KH2PO4 and 25 mM HEPES, adjusted to pH 7.4). When uptake was conducted in Na^+-free condition, NaCl was replaced with N-methyl-D-glucamine (NMG) in transport buffer. Three or four slices from one mouse, weighing each slice 2 to 10 mg, were randomly selected and then pre-incubated in a 24-well plate with 1.0 ml of oxygenated transport buffer in each well at 37 °C for 5 min. After pre-incubation, the kidney slices were put into transport buffer containing radiolabeled substrates with or without inhibitors to initiate the uptake reaction. […] The apparent uptake of [^14C]inulin was evaluated in independent experiments (n = 3) to estimate the volume of water adhering to the kidney slices after an incubation. […] Viability of the isolated kidney slices was assessed as described in the supplemental file. […]

Consider `CO[C@H]1O[C@H](CO)[C@@H](O)[C@H](O)[C@H]1O` [αMG, methyl-α-D-glucopyranoside], for which the “uptake in the presence of Na+ versus absence of Na+” value is “significantly higher”.
